Assay results published in the supplement of paper PMC10849652.
Some of the results follow.

The chains behind the UniProt entries cited, without tags or fusion partners. Where a name states a change or a piece, a line headed by the entry shows the natural chain unless it says otherwise.
UniProt Q96C57: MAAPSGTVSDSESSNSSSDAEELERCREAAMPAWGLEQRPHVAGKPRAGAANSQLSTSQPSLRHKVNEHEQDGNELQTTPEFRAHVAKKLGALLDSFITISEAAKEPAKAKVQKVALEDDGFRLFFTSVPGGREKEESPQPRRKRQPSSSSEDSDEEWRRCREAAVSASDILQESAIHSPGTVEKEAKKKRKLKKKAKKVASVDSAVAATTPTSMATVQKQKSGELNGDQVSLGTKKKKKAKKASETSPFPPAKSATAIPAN
UniProt Q8TB03: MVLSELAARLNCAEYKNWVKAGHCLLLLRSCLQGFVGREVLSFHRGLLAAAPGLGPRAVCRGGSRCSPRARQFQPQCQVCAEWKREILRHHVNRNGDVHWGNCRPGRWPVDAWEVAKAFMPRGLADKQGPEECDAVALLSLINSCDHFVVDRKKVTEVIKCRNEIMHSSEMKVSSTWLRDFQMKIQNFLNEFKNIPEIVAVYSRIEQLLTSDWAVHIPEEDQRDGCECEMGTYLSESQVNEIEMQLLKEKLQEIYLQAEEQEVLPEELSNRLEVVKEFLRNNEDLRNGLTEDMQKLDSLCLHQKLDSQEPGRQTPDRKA
UniProt Q9UBT7: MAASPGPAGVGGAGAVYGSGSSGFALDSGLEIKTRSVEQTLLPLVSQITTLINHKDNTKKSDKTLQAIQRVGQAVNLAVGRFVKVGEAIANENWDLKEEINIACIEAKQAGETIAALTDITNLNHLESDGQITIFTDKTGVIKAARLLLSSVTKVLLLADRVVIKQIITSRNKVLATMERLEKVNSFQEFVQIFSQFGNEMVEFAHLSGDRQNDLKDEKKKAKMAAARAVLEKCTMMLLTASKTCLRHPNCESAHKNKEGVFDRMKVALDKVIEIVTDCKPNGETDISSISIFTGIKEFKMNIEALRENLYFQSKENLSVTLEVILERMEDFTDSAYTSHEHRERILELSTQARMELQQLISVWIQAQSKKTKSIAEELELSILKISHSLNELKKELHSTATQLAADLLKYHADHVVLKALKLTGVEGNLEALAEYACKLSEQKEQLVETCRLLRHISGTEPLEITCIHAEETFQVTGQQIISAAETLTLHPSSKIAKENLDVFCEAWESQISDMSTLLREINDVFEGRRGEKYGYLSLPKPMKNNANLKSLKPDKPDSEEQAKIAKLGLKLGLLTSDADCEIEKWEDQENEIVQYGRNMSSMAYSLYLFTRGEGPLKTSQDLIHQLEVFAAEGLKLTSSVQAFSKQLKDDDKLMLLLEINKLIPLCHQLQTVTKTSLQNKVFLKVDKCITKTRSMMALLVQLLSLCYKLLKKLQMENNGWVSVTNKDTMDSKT
UniProt P00387: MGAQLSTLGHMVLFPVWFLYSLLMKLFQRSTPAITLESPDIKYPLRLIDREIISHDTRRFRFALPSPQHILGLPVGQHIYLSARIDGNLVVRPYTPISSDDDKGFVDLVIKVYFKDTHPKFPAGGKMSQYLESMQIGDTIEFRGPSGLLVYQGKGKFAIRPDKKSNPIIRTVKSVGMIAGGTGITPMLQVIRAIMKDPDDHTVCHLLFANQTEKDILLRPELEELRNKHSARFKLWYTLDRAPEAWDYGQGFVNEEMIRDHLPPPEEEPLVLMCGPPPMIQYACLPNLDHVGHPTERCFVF
UniProt Q13948: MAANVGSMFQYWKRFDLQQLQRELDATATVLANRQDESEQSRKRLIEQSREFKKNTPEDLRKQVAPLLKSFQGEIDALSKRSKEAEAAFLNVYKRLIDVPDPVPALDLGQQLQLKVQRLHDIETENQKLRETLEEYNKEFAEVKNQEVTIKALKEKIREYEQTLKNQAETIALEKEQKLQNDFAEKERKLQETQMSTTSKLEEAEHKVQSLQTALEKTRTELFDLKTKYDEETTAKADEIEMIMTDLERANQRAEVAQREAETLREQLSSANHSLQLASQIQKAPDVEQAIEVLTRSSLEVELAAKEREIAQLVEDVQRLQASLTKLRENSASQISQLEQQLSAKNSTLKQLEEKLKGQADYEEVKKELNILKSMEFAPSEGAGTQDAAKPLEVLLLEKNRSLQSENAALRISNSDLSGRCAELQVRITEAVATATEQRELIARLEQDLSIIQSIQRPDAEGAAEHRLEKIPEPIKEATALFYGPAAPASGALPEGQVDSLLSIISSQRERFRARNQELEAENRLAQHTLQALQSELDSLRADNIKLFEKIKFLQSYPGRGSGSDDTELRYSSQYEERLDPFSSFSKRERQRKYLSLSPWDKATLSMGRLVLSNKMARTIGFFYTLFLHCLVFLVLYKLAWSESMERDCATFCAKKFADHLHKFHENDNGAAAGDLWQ
UniProt P07711: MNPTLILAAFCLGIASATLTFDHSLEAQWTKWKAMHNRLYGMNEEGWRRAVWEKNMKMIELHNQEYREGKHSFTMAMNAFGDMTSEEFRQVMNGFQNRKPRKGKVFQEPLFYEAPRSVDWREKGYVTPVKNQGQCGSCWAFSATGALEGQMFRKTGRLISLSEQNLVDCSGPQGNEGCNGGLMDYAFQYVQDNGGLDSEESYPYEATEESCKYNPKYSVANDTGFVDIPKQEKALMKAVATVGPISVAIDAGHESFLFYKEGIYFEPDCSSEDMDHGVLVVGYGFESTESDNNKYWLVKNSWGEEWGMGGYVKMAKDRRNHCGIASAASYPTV
UniProt O75629: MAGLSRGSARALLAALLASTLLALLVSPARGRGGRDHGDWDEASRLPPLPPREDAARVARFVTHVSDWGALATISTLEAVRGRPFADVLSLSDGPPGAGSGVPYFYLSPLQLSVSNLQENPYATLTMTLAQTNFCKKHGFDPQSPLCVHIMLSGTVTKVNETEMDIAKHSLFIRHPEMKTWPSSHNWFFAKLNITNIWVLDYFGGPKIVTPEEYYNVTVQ
UniProt Q13618, whole entry, looked up: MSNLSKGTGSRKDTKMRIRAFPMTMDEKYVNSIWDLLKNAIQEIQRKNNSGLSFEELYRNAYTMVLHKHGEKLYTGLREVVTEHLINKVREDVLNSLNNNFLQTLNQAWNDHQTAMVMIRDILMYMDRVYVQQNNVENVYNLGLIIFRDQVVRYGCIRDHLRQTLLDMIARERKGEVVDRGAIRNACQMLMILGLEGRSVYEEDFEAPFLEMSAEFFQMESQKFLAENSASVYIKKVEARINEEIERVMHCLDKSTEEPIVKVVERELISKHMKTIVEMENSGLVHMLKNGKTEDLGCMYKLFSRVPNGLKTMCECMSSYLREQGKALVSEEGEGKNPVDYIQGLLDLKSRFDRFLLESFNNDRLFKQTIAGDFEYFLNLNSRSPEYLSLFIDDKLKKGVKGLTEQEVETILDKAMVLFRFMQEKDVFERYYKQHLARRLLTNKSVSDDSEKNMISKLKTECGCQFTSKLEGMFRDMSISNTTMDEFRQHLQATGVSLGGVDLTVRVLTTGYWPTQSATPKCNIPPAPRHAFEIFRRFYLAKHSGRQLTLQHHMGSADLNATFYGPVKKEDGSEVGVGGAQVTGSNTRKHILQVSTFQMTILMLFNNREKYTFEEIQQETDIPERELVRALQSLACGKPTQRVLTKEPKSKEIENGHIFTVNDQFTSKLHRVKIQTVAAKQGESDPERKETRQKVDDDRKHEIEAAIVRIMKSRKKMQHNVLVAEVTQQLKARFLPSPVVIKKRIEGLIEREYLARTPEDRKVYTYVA
UniProt Q9BZJ0: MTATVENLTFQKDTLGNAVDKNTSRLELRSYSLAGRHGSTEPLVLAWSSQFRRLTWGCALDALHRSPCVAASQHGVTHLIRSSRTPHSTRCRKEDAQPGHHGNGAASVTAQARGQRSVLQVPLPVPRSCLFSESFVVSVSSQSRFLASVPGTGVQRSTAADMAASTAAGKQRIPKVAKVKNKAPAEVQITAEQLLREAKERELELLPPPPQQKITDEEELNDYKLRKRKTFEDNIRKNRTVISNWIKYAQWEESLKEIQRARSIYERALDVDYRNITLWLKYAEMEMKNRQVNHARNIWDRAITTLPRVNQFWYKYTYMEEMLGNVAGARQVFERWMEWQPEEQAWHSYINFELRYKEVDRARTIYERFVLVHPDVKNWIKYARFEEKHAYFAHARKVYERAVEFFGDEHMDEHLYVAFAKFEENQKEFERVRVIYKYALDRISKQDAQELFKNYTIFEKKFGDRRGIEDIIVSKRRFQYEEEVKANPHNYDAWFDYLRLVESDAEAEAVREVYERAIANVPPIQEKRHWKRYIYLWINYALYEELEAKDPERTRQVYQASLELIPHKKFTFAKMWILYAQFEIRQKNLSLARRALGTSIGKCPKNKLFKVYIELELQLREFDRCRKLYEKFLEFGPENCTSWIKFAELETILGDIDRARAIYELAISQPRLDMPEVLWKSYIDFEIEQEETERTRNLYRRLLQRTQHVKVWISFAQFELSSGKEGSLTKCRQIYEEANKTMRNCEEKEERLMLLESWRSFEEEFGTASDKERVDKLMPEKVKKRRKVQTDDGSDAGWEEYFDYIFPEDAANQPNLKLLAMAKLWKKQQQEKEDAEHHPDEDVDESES
UniProt Q16619: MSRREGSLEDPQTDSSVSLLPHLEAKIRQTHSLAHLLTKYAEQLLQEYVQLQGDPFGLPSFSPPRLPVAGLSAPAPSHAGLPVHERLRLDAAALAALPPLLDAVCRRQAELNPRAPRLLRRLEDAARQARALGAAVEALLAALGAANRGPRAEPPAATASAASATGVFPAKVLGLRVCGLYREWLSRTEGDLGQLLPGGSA
UniProt P78368: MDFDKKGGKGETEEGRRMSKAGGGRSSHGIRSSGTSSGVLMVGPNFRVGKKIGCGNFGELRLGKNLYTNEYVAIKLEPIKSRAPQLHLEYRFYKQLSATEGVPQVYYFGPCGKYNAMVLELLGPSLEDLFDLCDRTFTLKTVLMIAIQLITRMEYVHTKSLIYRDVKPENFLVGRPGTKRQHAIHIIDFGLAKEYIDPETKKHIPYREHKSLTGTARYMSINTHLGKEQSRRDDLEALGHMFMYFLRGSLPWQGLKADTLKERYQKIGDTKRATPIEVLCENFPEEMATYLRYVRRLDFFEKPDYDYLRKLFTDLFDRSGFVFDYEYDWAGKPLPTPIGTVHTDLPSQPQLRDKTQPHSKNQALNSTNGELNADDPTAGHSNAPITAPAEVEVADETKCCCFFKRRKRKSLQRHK
UniProt P10619: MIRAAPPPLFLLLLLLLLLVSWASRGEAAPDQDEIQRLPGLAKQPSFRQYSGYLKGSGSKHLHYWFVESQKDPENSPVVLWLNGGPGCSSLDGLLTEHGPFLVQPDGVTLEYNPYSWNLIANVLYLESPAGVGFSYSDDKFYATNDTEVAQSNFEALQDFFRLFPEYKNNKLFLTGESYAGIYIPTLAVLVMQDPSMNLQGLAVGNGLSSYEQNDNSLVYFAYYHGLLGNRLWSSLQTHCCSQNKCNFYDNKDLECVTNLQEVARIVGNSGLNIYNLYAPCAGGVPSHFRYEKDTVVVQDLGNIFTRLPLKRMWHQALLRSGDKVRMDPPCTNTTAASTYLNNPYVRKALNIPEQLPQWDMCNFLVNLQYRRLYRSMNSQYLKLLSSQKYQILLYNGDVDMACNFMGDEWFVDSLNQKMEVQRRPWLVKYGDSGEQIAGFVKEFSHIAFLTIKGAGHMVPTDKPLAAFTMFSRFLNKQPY
UniProt O95825: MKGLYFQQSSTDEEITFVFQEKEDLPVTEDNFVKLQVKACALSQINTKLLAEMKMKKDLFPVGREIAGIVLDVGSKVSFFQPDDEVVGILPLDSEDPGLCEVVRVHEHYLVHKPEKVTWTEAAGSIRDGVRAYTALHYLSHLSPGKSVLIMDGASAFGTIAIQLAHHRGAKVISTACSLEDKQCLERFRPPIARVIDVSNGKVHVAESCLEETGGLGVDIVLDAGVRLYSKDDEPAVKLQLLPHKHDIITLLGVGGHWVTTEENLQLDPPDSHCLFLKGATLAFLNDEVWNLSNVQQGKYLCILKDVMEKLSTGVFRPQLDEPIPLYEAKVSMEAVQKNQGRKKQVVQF

How the values were obtained:
Assay in all cases: log2 fold change, soluble protein after heating vs DMSO (PISA); higher = thermal stabilisation; K562 lysate, 10 uM; active = over 0.2 and 3.5 SD of the protein, either way, in both replicates (recomputed)
erlotinib = compound: C#Cc1cccc(Nc2ncnc3cc(OCCOC)c(OCCOC)cc23)c1 [erlotinib]
Outline: (§1)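 Values give the log-two fold change in thermal stability against solvent controls, from duplicates. Crude K562 extract at 1 mg/mL protein, made by dounce homogenisation in PBS pH 7.4 with 1 mM MgCl2, was treated with 10 μM compound for 30 min. After 3 min heating across 48°C-58°C, aliquots were pooled, adjusted to 0.5% NP-40 at 4°C and centrifuged at 21,000xg for 90 min. The supernatant was measured by TMTpro 16plex LC-MS/MS with channel sums equalised.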

[1] = compound: C/C(=N\NC(=O)C1=CC(=CC=C1)S(=O)(=O)N2CCOCC2)/C3=C(C=CC(=C3)Cl)O
Outline: as §1

[2] = compound: C1=CC(=CC=C1C2=NC3=C(N2)C=C(C=C3)C(=O)N)OC4=CC=C(C=C4)Cl
Outline: as §1

[3] = compound: C1=CC2=C(C=CC(=C2)/C=C\3/C(=O)NC(=NCC4=CC=CS4)S3)N=C1
Outline: as §1

[4] = compound: C1=CC2=NC=CN=C2C=C1/C=C/3\C(=O)NC(=O)S3
Outline: as §1

[5] = compound: C1=CC=C(C=C1)C2=NC(=C(N2)C3=CC=NC=C3)C4=CC(=C(C=C4)Cl)O
Outline: as §1

[6] = compound: C1=CC=C2C(=C1)C3=NNC4=CC=CC(=C43)C2=O
Outline: as §1

[7] = compound: C1CCN(C1)C(=O)NC2=CC=CC(=C2)NC3=NC=C(C(=N3)NCCC4=CN=CN4)Br
Outline: as §1

[8] = compound: C1CN(CCC1(CC2=CC=C(C=C2)Cl)N)C3=NC=NC4=C3C=CN4
Outline: as §1

IRAK-1-4 Inhibitor I = compound: C1COCCN1CCN2C3=CC=CC=C3N=C2NC(=O)C4=CC(=CC=C4)[N+](=O)[O-] [IRAK-1-4 Inhibitor I]
Outline: as §1

Measured: log2 fold change

CUSTOS (UniProt Q96C57)
inactive: erlotinib -0.024 | [1] 0.014 | [2] -0.029 | [3] -0.027 | [4] -0.019 | [5] 0.009 | [6] -0.014 | [7] 0.024 | [8] -0.005 | IRAK-1-4 Inhibitor I 0.005

CXorf38 (UniProt Q8TB03)
inactive: erlotinib 0.068 | [1] 0.067 | [2] -0.003 | [3] 0.01 | [4] 0.042 | [5] 0.013 | [6] 0.012 | [7] -0.058 | [8] -0.031 | IRAK-1-4 Inhibitor I 0.026

CTNNAL1 (UniProt Q9UBT7)
inactive: erlotinib -0.03 | [1] 0.053 | [2] -0.063 | [3] -0.009 | [6] -0.119 | [7] 0.039 | [8] 0.012

CYB5R3 isoform 3 (UniProt P00387)
inactive: erlotinib -0.034 | [1] 0.019 | [2] 0.005 | [3] 0.004 | [4] 0.002 | [5] -0.037 | [6] 0.044 | [7] 0.029 | [8] 0.035 | IRAK-1-4 Inhibitor I -0.026

CUX1 isoform 2 (UniProt Q13948)
inactive: erlotinib -0.029 | [1] -0.003 | [2] -0.229 | [3] 0.034 | [5] -0.011 | [6] 0.02 | [7] -0.015 | [8] -0.008 | IRAK-1-4 Inhibitor I 0.029

CTSL (UniProt P07711)
inactive: erlotinib 0.004 | [1] 0.059 | [2] 0.012 | [3] -0.017 | [4] -0.007 | [5] 0 | [6] 0.007 | [7] -0.023 | [8] -0.026 | IRAK-1-4 Inhibitor I 0.021

CTBP2 isoform 2 (UniProt P56545)
inactive: erlotinib 0.094 | [1] -0.013 | [2] 0.042 | [3] 0.006 | [4] 0.01 | [5] -0.007 | [6] -0.025 | [7] -0.001 | [8] -0.01 | IRAK-1-4 Inhibitor I -0.008

CREG1 (UniProt O75629)
inactive: erlotinib 0.023 | [1] 0.169 | [2] -0.101 | [3] 0.014 | [4] -0.001 | [5] 0.018 | [6] 0.012 | [7] 0.048 | [8] -0.027 | IRAK-1-4 Inhibitor I 0.006

CUL3 (UniProt Q13618)
inactive: erlotinib 0.018 | [1] -0.002 | [2] -0.009 | [3] -0.018 | [4] 0.006 | [5] -0.003 | [6] 0.006 | [7] 0.002 | [8] 0.016 | IRAK-1-4 Inhibitor I 0.02

CRNKL1 (UniProt Q9BZJ0)
inactive: erlotinib -0.102 | [1] 0.052 | [2] -0.097 | [3] 0.013 | [4] 0.042 | [5] -0.027 | [6] -0.026 | [7] -0.048 | [8] 0.021 | IRAK-1-4 Inhibitor I -0.164

CTF1 (UniProt Q16619)
inactive: erlotinib -0.067 | [1] 0.032 | [2] 0.022 | [3] -0.054 | [5] -0.154 | [6] 0.043 | [7] 0.182 | [8] 0.033 | IRAK-1-4 Inhibitor I 0.082

CSNK1G2 (UniProt P78368)
inactive: erlotinib -0.111 | [1] -0.053 | [2] 0.141 | [3] 0.163 | [4] 0.158 | [5] -0.002 | [6] 0.322 | [7] 0.083 | [8] 0.056 | IRAK-1-4 Inhibitor I -0.115

CTSA (UniProt P10619)
inactive: erlotinib 0 | [1] 0.011 | [2] 0.021 | [3] 0.022 | [4] 0.039 | [5] -0.01 | [6] -0.033 | [7] -0.02 | [8] 0.035 | IRAK-1-4 Inhibitor I -0.009

2 successive records from above, for reference:
CTF1 (UniProt Q16619)
inactive: erlotinib -0.067 | [1] 0.032 | [2] 0.022 | [3] -0.054 | [5] -0.154 | [6] 0.043 | [7] 0.182 | [8] 0.033 | IRAK-1-4 Inhibitor I 0.082

CSNK1G2 (UniProt P78368)
inactive: erlotinib -0.111 | [1] -0.053 | [2] 0.141 | [3] 0.163 | [4] 0.158 | [5] -0.002 | [6] 0.322 | [7] 0.083 | [8] 0.056 | IRAK-1-4 Inhibitor I -0.115

Next entries:

CRYZL1 (UniProt O95825)
inactive: erlotinib -0.043 | [1] -0.005 | [2] 0.011 | [3] -0.016 | [4] -0.008 | [5] 0.023 | [6] 0.007 | [7] -0.024 | [8] 0.013 | IRAK-1-4 Inhibitor I 0.033
